Measured values reported in the supplement of paper PMC12823440, “Inhibitors supercharge kinase turnover through native proteolytic circuits” (Nature, 2025).
Where a name gives a salt, the structure may show the parent alone. The list shows a part of the results. Hit calls seldom repeat between salt and free forms of one compound.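 In K562 cells expressing nanoluciferase-fused kinases, luminescence was recorded at 4 h intervals between 2 and 18 h, normalized as percent of control with DMSO at 100% and a positive control at 0%. A significant (2 sigma) signal drop marks a time point as decreased. The authors' rule for a hit is not shown and takes in more than the number of time points.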

Amino acid sequences for entries named in this document (tags omitted). A change or cut given only in a name is not applied to a line headed by its entry.
UniProt P07949, whole entry, looked up: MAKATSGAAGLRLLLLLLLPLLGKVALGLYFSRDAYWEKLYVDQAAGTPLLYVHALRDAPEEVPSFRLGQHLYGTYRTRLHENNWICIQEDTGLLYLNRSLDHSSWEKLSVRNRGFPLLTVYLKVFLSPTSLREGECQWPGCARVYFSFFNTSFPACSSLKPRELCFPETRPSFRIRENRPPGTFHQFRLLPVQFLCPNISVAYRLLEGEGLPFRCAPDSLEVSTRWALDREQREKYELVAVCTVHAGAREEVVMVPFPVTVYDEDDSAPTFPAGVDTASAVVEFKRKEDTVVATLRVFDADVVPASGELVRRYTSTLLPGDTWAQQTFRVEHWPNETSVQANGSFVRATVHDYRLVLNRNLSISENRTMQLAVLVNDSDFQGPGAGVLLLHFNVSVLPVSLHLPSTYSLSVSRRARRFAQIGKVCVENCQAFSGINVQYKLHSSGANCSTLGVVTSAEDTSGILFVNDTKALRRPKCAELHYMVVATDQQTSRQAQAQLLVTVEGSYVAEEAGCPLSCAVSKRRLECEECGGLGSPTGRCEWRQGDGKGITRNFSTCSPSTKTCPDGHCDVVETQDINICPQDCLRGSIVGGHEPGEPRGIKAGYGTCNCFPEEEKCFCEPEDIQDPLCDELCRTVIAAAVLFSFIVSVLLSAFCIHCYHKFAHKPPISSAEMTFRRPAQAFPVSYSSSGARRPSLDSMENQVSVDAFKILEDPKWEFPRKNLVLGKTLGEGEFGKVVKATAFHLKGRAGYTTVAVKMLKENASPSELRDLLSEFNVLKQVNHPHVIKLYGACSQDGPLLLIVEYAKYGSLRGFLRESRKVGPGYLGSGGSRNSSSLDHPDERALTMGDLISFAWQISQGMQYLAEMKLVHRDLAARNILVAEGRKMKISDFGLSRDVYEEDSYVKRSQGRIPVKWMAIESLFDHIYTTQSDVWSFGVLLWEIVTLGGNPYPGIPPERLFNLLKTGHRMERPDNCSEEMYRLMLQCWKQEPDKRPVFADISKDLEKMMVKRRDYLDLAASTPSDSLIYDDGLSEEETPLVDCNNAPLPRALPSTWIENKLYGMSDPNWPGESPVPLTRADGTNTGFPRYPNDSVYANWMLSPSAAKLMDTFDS
UniProt P07949, whole entry M918T, looked up: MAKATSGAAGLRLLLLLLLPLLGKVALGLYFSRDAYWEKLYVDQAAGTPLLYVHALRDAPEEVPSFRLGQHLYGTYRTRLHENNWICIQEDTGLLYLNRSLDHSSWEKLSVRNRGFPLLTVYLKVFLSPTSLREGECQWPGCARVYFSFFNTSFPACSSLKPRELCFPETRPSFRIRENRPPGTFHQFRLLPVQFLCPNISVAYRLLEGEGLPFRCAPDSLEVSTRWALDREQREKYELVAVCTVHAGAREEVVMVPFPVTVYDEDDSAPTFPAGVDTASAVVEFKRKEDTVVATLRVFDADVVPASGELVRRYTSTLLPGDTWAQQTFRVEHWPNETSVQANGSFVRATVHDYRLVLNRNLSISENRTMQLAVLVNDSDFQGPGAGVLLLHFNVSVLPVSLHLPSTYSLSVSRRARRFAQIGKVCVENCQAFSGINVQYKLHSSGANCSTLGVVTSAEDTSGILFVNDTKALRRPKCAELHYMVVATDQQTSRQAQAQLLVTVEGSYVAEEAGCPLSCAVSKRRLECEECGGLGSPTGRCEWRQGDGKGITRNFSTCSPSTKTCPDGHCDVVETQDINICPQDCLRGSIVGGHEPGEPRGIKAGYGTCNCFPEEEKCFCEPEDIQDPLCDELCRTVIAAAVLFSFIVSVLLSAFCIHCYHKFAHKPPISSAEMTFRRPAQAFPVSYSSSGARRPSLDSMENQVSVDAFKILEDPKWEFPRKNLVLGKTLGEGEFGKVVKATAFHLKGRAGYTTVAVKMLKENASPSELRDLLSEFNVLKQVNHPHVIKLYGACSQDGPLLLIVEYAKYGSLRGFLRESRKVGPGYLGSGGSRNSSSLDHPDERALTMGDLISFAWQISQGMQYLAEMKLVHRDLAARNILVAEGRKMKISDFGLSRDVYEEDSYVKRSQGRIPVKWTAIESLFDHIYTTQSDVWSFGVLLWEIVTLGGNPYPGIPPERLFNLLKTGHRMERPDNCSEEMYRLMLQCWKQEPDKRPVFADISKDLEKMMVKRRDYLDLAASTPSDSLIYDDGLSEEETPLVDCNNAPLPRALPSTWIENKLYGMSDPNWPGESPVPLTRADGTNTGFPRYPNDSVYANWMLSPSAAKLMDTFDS
UniProt Q9BRS2: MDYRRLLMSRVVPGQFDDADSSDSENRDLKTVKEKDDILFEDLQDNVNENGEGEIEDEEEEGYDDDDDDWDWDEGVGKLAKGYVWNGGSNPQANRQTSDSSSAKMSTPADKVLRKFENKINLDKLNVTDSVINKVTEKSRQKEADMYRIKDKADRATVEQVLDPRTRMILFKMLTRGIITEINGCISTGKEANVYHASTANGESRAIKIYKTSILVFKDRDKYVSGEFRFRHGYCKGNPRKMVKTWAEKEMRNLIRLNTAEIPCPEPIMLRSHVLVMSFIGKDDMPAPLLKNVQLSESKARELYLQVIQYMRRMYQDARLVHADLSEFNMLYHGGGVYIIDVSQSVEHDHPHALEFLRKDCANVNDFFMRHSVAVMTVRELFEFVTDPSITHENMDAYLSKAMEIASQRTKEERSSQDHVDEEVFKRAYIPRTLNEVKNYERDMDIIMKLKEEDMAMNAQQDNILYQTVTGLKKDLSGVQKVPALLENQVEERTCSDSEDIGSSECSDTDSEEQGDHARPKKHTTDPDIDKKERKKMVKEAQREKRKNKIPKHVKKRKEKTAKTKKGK
UniProt Q13546: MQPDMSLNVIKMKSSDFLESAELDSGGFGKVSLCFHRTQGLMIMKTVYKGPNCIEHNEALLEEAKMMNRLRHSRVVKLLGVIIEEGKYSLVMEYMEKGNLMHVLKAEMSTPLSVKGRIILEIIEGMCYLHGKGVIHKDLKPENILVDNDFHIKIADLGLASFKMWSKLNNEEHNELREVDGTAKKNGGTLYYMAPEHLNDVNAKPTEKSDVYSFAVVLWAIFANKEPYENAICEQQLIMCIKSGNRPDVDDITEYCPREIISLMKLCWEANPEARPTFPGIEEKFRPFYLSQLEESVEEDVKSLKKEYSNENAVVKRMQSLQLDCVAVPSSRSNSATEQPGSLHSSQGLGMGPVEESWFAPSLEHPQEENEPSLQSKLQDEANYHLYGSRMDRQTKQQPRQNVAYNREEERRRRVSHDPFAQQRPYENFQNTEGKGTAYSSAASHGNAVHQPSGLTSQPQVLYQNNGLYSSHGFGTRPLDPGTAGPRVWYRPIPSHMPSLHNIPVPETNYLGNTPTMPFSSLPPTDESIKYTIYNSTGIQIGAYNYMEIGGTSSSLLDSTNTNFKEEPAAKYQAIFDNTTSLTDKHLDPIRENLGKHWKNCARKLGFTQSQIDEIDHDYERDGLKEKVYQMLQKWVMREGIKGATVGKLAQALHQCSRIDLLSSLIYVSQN
UniProt Q01974, whole entry: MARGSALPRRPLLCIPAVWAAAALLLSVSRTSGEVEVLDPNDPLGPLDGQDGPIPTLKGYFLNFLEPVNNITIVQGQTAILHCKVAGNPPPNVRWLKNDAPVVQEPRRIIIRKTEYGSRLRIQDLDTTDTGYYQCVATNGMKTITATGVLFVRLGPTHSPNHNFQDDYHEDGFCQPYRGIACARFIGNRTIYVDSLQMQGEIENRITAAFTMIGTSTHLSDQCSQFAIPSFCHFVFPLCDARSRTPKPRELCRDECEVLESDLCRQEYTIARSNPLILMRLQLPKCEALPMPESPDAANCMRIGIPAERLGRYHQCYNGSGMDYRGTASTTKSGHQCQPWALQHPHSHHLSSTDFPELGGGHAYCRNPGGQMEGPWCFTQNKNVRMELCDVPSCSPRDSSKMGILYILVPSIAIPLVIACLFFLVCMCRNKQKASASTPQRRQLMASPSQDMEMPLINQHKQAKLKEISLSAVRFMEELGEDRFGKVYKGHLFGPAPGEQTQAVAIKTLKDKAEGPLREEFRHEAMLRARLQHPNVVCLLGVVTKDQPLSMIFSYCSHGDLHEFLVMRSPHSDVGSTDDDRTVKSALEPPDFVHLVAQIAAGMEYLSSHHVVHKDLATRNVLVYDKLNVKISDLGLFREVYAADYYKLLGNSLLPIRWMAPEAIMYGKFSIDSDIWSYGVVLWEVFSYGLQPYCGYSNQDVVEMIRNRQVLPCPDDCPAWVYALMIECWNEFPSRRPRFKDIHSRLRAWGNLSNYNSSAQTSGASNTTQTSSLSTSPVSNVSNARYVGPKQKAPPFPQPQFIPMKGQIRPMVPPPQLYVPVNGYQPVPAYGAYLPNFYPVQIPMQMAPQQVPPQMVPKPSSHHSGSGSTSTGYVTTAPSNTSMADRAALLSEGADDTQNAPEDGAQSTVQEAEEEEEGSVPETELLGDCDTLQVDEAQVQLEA
UniProt Q15418, whole entry: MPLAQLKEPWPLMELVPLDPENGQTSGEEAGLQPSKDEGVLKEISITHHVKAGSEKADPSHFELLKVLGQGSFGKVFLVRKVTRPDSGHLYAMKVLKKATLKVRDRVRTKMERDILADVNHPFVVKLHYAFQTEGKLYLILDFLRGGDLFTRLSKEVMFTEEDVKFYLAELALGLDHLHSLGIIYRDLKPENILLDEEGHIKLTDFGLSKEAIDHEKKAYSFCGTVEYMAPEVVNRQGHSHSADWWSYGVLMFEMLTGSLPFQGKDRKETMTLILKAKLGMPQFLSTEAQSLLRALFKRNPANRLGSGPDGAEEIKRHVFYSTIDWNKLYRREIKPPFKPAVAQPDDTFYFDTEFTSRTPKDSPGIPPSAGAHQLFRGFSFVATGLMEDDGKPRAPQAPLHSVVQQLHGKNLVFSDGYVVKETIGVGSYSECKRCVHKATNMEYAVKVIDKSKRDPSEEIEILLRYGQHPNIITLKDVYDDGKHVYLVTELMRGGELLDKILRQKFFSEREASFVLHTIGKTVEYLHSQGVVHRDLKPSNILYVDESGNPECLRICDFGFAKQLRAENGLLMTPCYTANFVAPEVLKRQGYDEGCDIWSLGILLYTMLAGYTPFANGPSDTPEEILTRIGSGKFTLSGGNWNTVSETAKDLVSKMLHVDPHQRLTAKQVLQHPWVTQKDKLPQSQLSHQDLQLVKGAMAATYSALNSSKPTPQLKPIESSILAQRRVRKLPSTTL
UniProt Q9NYA1, whole entry: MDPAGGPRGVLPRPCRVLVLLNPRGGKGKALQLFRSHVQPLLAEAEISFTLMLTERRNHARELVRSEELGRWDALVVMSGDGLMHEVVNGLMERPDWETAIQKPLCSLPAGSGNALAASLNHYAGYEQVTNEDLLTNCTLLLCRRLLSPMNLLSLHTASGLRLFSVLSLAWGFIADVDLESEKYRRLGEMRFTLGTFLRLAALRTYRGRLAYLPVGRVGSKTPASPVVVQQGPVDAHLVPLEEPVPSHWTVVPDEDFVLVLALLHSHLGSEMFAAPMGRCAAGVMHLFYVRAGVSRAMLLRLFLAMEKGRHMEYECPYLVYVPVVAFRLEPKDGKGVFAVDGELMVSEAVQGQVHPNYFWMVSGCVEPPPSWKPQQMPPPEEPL
UniProt Q9Y6E0: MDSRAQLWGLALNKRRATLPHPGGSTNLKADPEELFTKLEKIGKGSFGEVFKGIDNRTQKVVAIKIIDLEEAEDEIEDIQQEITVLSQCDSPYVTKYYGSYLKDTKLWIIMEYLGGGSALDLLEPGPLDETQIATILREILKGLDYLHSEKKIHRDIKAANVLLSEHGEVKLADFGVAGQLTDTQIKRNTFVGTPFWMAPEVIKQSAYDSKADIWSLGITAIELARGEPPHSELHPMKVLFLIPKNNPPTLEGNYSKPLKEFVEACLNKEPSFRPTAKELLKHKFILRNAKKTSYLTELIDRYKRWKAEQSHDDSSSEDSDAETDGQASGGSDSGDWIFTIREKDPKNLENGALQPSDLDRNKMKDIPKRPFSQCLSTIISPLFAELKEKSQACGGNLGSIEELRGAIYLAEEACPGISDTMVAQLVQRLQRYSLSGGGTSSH

Key:
Test in all cases: kinase-Nluc reporter destabilization hit call (1 = scored as downregulated) (binary); higher = compound decreases kinase abundance
Details in all cases: K562, 2-18 h
RET = RET (UniProt P07949)
[1] = target: RET_M918T (clone: RET_mut) (UniProt P07949)
RIOK1 = RIOK1 (UniProt Q9BRS2)
RIPK1 = RIPK1 (UniProt Q13546)
RIPK2 = RIPK2 (UniProt O43353)
ROR2 = ROR2 (UniProt Q01974)
RPS6KA1 = RPS6KA1 (UniProt Q15418)
SPHK1 = SPHK1 (UniProt Q9NYA1)
SRC = SRC (UniProt P12931)
STK24 = STK24 (UniProt Q9Y6E0)

Measured: kinase-Nluc reporter destabilization hit call

O=C1Nc2ccccc2/C1=C/c1ccccn1 [(E/Z)-GSK-3β inhibitor 1]
inactive: RET; 10 µM 0 | [1]; 10 µM 0 | RIOK1; 10 µM 0 | RIPK1; 10 µM 0 | RIPK2; 10 µM 0 | ROR2; 10 µM 0 | RPS6KA1; 10 µM 0 | SPHK1; 10 µM 0 | SRC; 10 µM 0 | STK24; 10 µM 0

C#Cc1cccc(Nc2ncnc3cc4c(cc23)OCCOCCOCCO4)c1 [Icotinib]
inactive: RET; 10 µM 0 | [1]; 10 µM 0 | RIOK1; 10 µM 0 | RIPK1; 10 µM 0 | RIPK2; 10 µM 0 | ROR2; 10 µM 0 | RPS6KA1; 10 µM 0 | SPHK1; 10 µM 0 | SRC; 10 µM 0 | STK24; 10 µM 0

CC(C)Nc1cc(-c2c[nH]c(C(=O)N[C@H](CO)c3cccc(Cl)c3)c2)c(Cl)cn1 [Ulixertinib (hydrochloride)]
inactive: RET; 10 µM 0 | [1]; 10 µM 0 | RIOK1; 10 µM 0 | RIPK1; 10 µM 0 | RIPK2; 10 µM 0 | ROR2; 10 µM 0 | RPS6KA1; 10 µM 0 | SPHK1; 10 µM 0 | SRC; 10 µM 0 | STK24; 10 µM 0

CN1CCCN(C(=O)c2cccc(-c3ccc(/C=C4/C(=O)Nc5ccc(Cl)cc54)o3)c2)CC1 [CX-6258 (hydrochloride)]
inactive: RET; 2.5 µM 0 | [1]; 2.5 µM 0 | RIOK1; 2.5 µM 0 | RIPK1; 2.5 µM 0 | RIPK2; 2.5 µM 0 | ROR2; 2.5 µM 0 | RPS6KA1; 2.5 µM 0 | SPHK1; 2.5 µM 0 | SRC; 2.5 µM 0 | STK24; 2.5 µM 0

C[C@@H](N)c1ccc(C(=O)Nc2ccnc3[nH]ccc23)cc1
inactive: RET; 10 µM 0 | [1]; 10 µM 0 | RIOK1; 10 µM 0 | RIPK1; 10 µM 0 | RIPK2; 10 µM 0 | ROR2; 10 µM 0 | RPS6KA1; 10 µM 0 | SPHK1; 10 µM 0 | SRC; 10 µM 0 | STK24; 10 µM 0

COc1ccc(S(=O)(=O)N(CCO)c2ccccc2CN(C)C/C=C/c2ccc(Cl)cc2)cc1 [KN-93 (phosphate)]
inactive: RET; 2.5 µM 0 | [1]; 2.5 µM 0 | RIOK1; 2.5 µM 0 | RIPK1; 2.5 µM 0 | RIPK2; 2.5 µM 0 | ROR2; 2.5 µM 0 | RPS6KA1; 2.5 µM 0 | SPHK1; 2.5 µM 0 | SRC; 2.5 µM 0 | STK24; 2.5 µM 0

CCN(CC)CC(=O)Nc1c(C)cccc1C [Lidocaine]
inactive: RET; 10 µM 0 | [1]; 10 µM 0 | RIOK1; 10 µM 0 | RIPK1; 10 µM 0 | RIPK2; 10 µM 0 | ROR2; 10 µM 0 | RPS6KA1; 10 µM 0 | SPHK1; 10 µM 0 | SRC; 10 µM 0 | STK24; 10 µM 0

CC(=O)c1c(C)c2cnc(Nc3ccc(N4CCNCC4)cn3)nc2n(C2CCCC2)c1=O [Palbociclib (isethionate)]
inactive: RET; 10 µM 0 | [1]; 10 µM 0 | RIOK1; 10 µM 0 | RIPK1; 10 µM 0 | RIPK2; 10 µM 0 | ROR2; 10 µM 0 | RPS6KA1; 10 µM 0 | SPHK1; 10 µM 0 | SRC; 10 µM 0 | STK24; 10 µM 0

Nc1ncnc2c1c(-c1ccc(Oc3ccccc3)cc1)nn2[C@@H]1CCCNC1 [IBT6A (hydrochloride)]
inactive: RET; 2.5 µM 0 | [1]; 2.5 µM 0 | RIOK1; 2.5 µM 0 | RIPK1; 2.5 µM 0 | RIPK2; 2.5 µM 0 | ROR2; 2.5 µM 0 | RPS6KA1; 2.5 µM 0 | SPHK1; 2.5 µM 0 | SRC; 2.5 µM 0 | STK24; 2.5 µM 0

C=CC(=O)N1CCN(c2ncnc3c(F)c(-c4c(O)cccc4F)c(Cl)cc23)CC1
inactive: RET; 2.5 µM 0 | RET; 10 µM 0 | [1]; 2.5 µM 0 | [1]; 10 µM 0 | RIOK1; 2.5 µM 0 | RIOK1; 10 µM 0 | RIPK1; 2.5 µM 0 | RIPK1; 10 µM 0 | RIPK2; 2.5 µM 0 | RIPK2; 10 µM 0 | ROR2; 2.5 µM 0 | ROR2; 10 µM 0 | RPS6KA1; 2.5 µM 0 | RPS6KA1; 10 µM 0 | SPHK1; 2.5 µM 0 | SPHK1; 10 µM 0 | SRC; 2.5 µM 0 | SRC; 10 µM 0 | STK24; 2.5 µM 0 | STK24; 10 µM 0

CN(C)C(=O)c1cc2cnc(Nc3ccc(N4CCNCC4)cn3)nc2n1C1CCCC1 [Ribociclib succinate hydrate]
inactive: RET; 2.5 µM 0 | [1]; 2.5 µM 0 | RIOK1; 2.5 µM 0 | RIPK1; 2.5 µM 0 | RIPK2; 2.5 µM 0 | ROR2; 2.5 µM 0 | RPS6KA1; 2.5 µM 0 | SPHK1; 2.5 µM 0 | SRC; 2.5 µM 0 | STK24; 2.5 µM 0

Two consecutive records already listed, for reference:
C=CC(=O)N1CCN(c2ncnc3c(F)c(-c4c(O)cccc4F)c(Cl)cc23)CC1
inactive: RET; 2.5 µM 0 | RET; 10 µM 0 | [1]; 2.5 µM 0 | [1]; 10 µM 0 | RIOK1; 2.5 µM 0 | RIOK1; 10 µM 0 | RIPK1; 2.5 µM 0 | RIPK1; 10 µM 0 | RIPK2; 2.5 µM 0 | RIPK2; 10 µM 0 | ROR2; 2.5 µM 0 | ROR2; 10 µM 0 | RPS6KA1; 2.5 µM 0 | RPS6KA1; 10 µM 0 | SPHK1; 2.5 µM 0 | SPHK1; 10 µM 0 | SRC; 2.5 µM 0 | SRC; 10 µM 0 | STK24; 2.5 µM 0 | STK24; 10 µM 0

CN(C)C(=O)c1cc2cnc(Nc3ccc(N4CCNCC4)cn3)nc2n1C1CCCC1 [Ribociclib succinate hydrate]
inactive: RET; 2.5 µM 0 | [1]; 2.5 µM 0 | RIOK1; 2.5 µM 0 | RIPK1; 2.5 µM 0 | RIPK2; 2.5 µM 0 | ROR2; 2.5 µM 0 | RPS6KA1; 2.5 µM 0 | SPHK1; 2.5 µM 0 | SRC; 2.5 µM 0 | STK24; 2.5 µM 0

(further entries)

Cc1cc(Nc2ncc(Cl)c(Nc3ccccc3S(=O)(=O)C(C)C)n2)c(OC(C)C)cc1C1CCNCC1 [Ceritinib dihydrochloride]
inactive: RET; 2.5 µM 0 | [1]; 2.5 µM 0 | RIOK1; 2.5 µM 0 | RIPK1; 2.5 µM 0 | RIPK2; 2.5 µM 0 | ROR2; 2.5 µM 0 | RPS6KA1; 2.5 µM 0 | SPHK1; 2.5 µM 0 | SRC; 2.5 µM 0 | STK24; 2.5 µM 0

CN(C)C/C=C/C(=O)Nc1cc2c(Nc3ccc(F)c(Cl)c3)ncnc2cc1O[C@H]1CCOC1 [Afatinib (dimaleate)]
inactive: RET; 2.5 µM 0 | [1]; 2.5 µM 0 | RIOK1; 2.5 µM 0 | RIPK1; 2.5 µM 0 | RIPK2; 2.5 µM 0 | ROR2; 2.5 µM 0 | RPS6KA1; 2.5 µM 0 | SPHK1; 2.5 µM 0 | SRC; 2.5 µM 0 | STK24; 2.5 µM 0
